{
  "source": "paper doi:10.1101/616896",
  "biological_target": "T1, CT288 (BACTH fusion) (C. trachomatis serovar L2) (UniProt O84290)",
  "T1 sequence": "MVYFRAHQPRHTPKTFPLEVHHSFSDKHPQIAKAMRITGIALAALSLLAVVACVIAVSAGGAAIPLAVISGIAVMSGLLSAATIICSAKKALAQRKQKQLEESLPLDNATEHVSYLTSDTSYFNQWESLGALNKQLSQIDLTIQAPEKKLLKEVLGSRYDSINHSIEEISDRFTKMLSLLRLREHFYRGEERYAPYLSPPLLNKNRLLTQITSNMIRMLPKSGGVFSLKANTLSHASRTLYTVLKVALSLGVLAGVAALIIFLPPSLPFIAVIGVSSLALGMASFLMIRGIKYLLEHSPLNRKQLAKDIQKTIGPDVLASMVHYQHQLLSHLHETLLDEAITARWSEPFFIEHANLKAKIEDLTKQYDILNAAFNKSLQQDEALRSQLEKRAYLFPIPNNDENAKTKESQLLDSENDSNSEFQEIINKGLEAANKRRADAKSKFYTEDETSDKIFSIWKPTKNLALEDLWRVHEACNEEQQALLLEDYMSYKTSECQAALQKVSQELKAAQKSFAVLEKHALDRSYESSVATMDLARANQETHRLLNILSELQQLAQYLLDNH",
  "experiment": "two-hybrid",
  "note": "These are yes or no findings as the source states them, for the method shown. Tags and fused reporters may be left off the sequences shown.",
  "data": [
    {"substance": "LRRF1 (BACTH fusion) (human)", "values": [
      {"measurement": "binding", "result": "no binding"}
    ]}
  ]
}
